Experimental data reported in article PMC8705867.
No constants are given. Whether binding was seen depends on the method and setting. Some entries that bind do so weakly or less than the wild type. Sequences can lack the tags named with a protein.

Legend:
[1] = target: T1, predicted mature PD1 protein (amino acids 63-427) fused to the GAL4 DNA-binding domain (Arabidopsis thaliana) (UniProt Q84WN0); experiment: two-hybrid; screen of an Arabidopsis cDNA library (Mate & Plate, Matchmaker GAL4 system) with PD1(63-427)-GAL4 BD as bait; growth on selective plates, inserts sequenced
T1 sequence: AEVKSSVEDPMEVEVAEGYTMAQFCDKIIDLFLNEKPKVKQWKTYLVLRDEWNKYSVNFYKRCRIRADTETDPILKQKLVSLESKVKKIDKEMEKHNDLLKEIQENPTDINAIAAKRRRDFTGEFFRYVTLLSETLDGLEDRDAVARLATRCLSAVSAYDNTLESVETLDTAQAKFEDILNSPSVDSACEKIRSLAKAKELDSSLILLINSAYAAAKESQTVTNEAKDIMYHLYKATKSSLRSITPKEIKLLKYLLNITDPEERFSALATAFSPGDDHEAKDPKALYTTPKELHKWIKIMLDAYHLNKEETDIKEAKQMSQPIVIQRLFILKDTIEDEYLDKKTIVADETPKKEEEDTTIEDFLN

[2] = target: T1, predicted mature PD1 protein (amino acids 63-427) fused to the GAL4 DNA-binding domain (Arabidopsis thaliana); experiment: two-hybrid; PD1-BD (pGBKT7) and PEP-β-AD (pGADT7) co-transformed into yeast AH109; growth on SD/-Trp-Leu-His-Ade, MEL1 activity with X-α-Gal; empty BD and AD vectors as negative controls

Binder	binding [1]	binding [2]
PEP-β (rpoB) insert of the two-hybrid cDNA library, starting with residue 866 (domain or fragment, UniProt P50546 866-1072) GQIFECSLGLAGSLLDRHYRIAPFDERYEQEASRKLVFSELYEASKQTANPWVFEPEYPGKSRIFDGRTGDPFEQPVIIGKPYILKLIHQVDDKIHGRSSGHYALVTQQPLRGRSKQGGQRVGEMEVWALEGFGVAHILQEMLTYKSDHIRARQEVLGTTIIGGTIPKPEDAPESFRLLVRELRSLALELNHFLVSEKNFQINRKEV	binds	–
PEP-β fused to the GAL4 activation domain (protein, UniProt P50546 1-1072) MLGDEKEGTSAIPGFNQIQFEGFYRFIDQGLIEELAKFPKIEDIDHEIEFQLFVETYQLVEPLIKERDAVYESLTYSSELYVSAGLIWKTSRNMQEQRIFIGNIPLMNSLGTSIVNGIYRIVINQILQSPGIYYQSELDHNGISVYTGTIISDWGGRLELEIDKKARIWARVSRKQKISILVLSSAMGLNLREILENVCYPEIFLSFLTDKEKKKIGSKENAILEFYQQFSCVGGDPIFSESLCKELQKKFFHQRCELGRIGRRNINWRLNLNIPQNNIFLLPRDVLAAADHLIGMKFGMGTLDDMNHLKNKRIRSVADLLQDQLGLALARLENVVKGTISGAIRHKLIPTPQNLVTSTPLTTTYESFFGLHPLSQVLDRTNPLTQIVHGRKLSYLGPGGLTGRTANFRIRDIHPSHYGRICPIDTSEGINVGLIGSLSIHARIGDWGSLESPFYELFEKSKKARIRMLFLSPSQDEYYMIAAGNSLALNRGIQEEQAVPARYRQEFLTIAWEEVHLRSIFPFQYFSIGASLIPFIEHNDANRALMSSNMQRQAVPLSRSEKCIVGTGLERQVALDSGVPAIAEHEGKILYTDTEKIVFSGNGDTLSIPLIMYQRSNKNTCMHQKPQVRRGKCIKKGQILADGAATVGGELALGKNILVAYMPWEGYNFEDAVLISECLVYGDIYTSFHIRKYEIQTHVTTQGPERITKEIPHLEGRLLRNLDKNGIVMLGSWVETGDILVGKLTPQVAKESSYAPEDRLLRAILGIQVSTSKETCLKLPIGGRGRVIDVRWVQKKGGSSYNPEIIRVYISQKREIKVGDKVAGRHGNKGIISKILPRQDMPYLQDGRPVDMVFNPLGVPSRMNVGQIFECSLGLAGSLLDRHYRIAPFDERYEQEASRKLVFSELYEASKQTANPWVFEPEYPGKSRIFDGRTGDPFEQPVIIGKPYILKLIHQVDDKIHGRSSGHYALVTQQPLRGRSKQGGQRVGEMEVWALEGFGVAHILQEMLTYKSDHIRARQEVLGTTIIGGTIPKPEDAPESFRLLVRELRSLALELNHFLVSEKNFQINRKEV	–	binds
